This assay in a line: qHTS Assay to Find Inhibitors of Chronic Active B-Cell Receptor Signaling. As to conditions: ABC-DLBCL IkBa-CBG/CBR reporter, luminescence ratio (green luciferase fused to IkBa over red control in TMD8 lymphoma cells), 4 h. The essentials: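 Doxycycline induced both beetle luciferases in TMD8 lymphoma cells; IKK-driven degradation limits the IkappaBalpha-fused green signal, while red luminescence normalises for cell number and nonspecific effects. Compounds tested up to 46 uM, 4 hrs.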
(qHTS replaces the single test concentration by a dilution series.)

Where [1] appears, read: measured here: CBR red luminescence, cell number.
Setting [2] is: measured here: IkBa-CBG green luminescence.

Data on 64 compounds can be found in PubChem BioAssay AID493014 (National Center for Advancing Translational Sciences (NCATS), 2011).

The structures appear in SMILES notation. The list shows a part of the results. The main result of the screen is listed elsewhere. These columns were measured beside it and carry no call. Most of these compounds were active or inconclusive in the main read-out, so they are no random draw. The note in brackets gives the kind of curve behind each potency; many fits are weak.

In general, AC50 refers to the midpoint of the concentration-response curve, whichever way the signal moves. Consider `CNC(=O)c1[nH]cnc1C(=O)Nc1ccc(C)cc1`, for which, under setting [1], the AC50 is 4.61 µM [falling, partial curve, poor fit]. Still for that read-out and setting: for `Cc1cc(C(=O)Nc2nnc(C(F)(F)F)s2)no1` the value was 16.4 µM [falling, partial curve, poor fit]; for `COc1ccc(C)cc1NC(=O)c1ccccc1NS(=O)(=O)c1ccc(Cl)s1`, 11.2 µM [falling, partial curve, poor fit]; for `O=C(NC(=S)Nc1ccc(F)c([N+](=O)[O-])c1)c1ccccc1F`, 35.5 µM [falling, single point]. Still for that read-out and setting: the same measure for `c1ccc2c(-c3c[nH]c4ccccc34)c3ccccc3nc2c1`: 35.5 µM [falling, single point]. On the same count and under the same terms, for `Cc1ccc(C(=O)N/N=C/c2ccoc2)cc1C` the value was 11.2 µM [falling, partial curve, poor fit]; for `O=c1nc2c(-c3ccccc3F)n[nH]n2c2ccccc12`, 0.282 µM [falling, full curve].

Consider `CCOC(=O)C1=C(C)NC(=S)NC1C` (configuration not stated), for which the AC50 under setting [1] was 0.794 µM [rising, full curve, poor fit]. For `CCc1cc2c(=O)c(-c3nc(C)cs3)coc2cc1O`, the AC50 under setting [1] is 0.316 µM [falling, full curve].

In the case of `COCC(C)Nc1ncnc2c1cnn2-c1ccc(Cl)cc1` (configuration not stated), under setting [1], the AC50 is 11.2 µM [falling, partial curve, poor fit].

`Cc1ccccc1OCCn1c(=O)sc2ccccc21`: the concentration at half-maximal activity (AC50) under setting [1] was 3.66 µM [rising, single point]. Still for that read-out and setting: for `O=C(c1cc(=O)c2ccccc2o1)N1CCN(c2ccccc2)CC1` the value was 3.55 µM [rising, partial curve, poor fit]; for `S=C(Nc1ccc(Br)cc1)NC1CCCC1`, 18.4 µM [falling, single point]; for `CCCC(=O)NC(c1ccc(N(C)C)cc1)c1c(O)ccc2ccccc12` (configuration not stated), 32.6 µM [falling, single point]. On to `CN(C1CCS(=O)(=O)C1)S(=O)(=O)c1ccccc1` (configuration not stated), for which the concentration at half-maximal activity (AC50) under setting [1] is 3.55 µM [falling, partial curve, poor fit]. Regarding `CCOC(=O)C1CCN(C(=O)c2cc3c(s2)-c2ccccc2OC3)CC1`, under setting [1], the AC50 is 12.6 µM [falling, partial curve, poor fit].

With `Cc1ccc(C)c(CN2C(=O)c3ccccc3Sc3ccc(C(=O)NCCCOC(C)C)cc32)c1`, the AC50 under setting [1] is 6.31 µM [falling, partial curve, poor fit].

Regarding `NC(N)=N/N=C/c1ccc(OCc2ccccc2Cl)cc1`, under setting [1], the AC50 was 8.91 µM [falling, partial curve, poor fit].

As to `COCCC(=O)N1CCC(Oc2ccc(C(=O)NCc3cccc(C)n3)cc2)CC1`, the concentration at half-maximal activity (AC50) under setting [1] is 2.82 µM [rising, partial curve, poor fit].

For `O=C(CCCN1C(=O)/C(=C\c2cccc(Br)c2)SC1=S)Nc1cccnc1`, the AC50 under setting [1] was 6.31 µM [falling, partial curve].

With `O=C(NC1CCSc2ccccc21)c1ccc(F)c(S(=O)(=O)N2CCOCC2)c1` (configuration not stated), the AC50 under setting [1] is 11.2 µM [falling, partial curve]. On the same count and under the same terms, for `COc1cccc(CN2CCN(C(=S)NCc3ccc(Cl)cc3)CC2)c1` the value was 22.4 µM [falling, single point]; for `COc1cccc(C2=NN(C(=O)c3ccc(C)o3)C(O)(C(F)(F)F)C2)c1` (configuration not stated), 11.2 µM [falling, single point]. For the compound `NC(=O)CC1C(=O)N(c2ccccc2)C(=S)N1NC(=O)c1ccccc1` (configuration not stated), under setting [1], the AC50 is 8.91 µM [falling, partial curve]. For the compound `Cc1cc(C)nc(N2N=C(CSc3ccc(Cl)cc3)CC2=O)n1`, the concentration at half-maximal activity (AC50) under setting [1] was 35.5 µM [rising, single point]. Still for that read-out and setting: the same measure for `O=C(Nc1cccc(C(F)(F)F)c1)c1cnc2n(c1=O)CCS2`: 29.1 µM [rising, single point]. `CC1CCN(C(=O)c2ccc(S(=O)(=O)N3CCOCC3)cc2)CC1`: the AC50 under setting [1] is 0.126 µM [rising, full curve, poor fit]. For the compound `COc1ccc(/C=N\NC(=O)C2CCCC2)cc1Br`, under setting [1], the concentration at half-maximal activity (AC50) is 35.5 µM [falling, single point].

For the compound `Cc1ccc2nc(C)c(C(=O)NN=C3CCCCCC3)n2c1`, the AC50 under setting [2] is 22.4 µM [falling, single point]. Turning to `COc1ccccc1N(Cc1cc(=O)[nH]c2ccccc12)C(=O)c1ccccc1`, the AC50 under setting [1] was 17.8 µM [falling, partial curve, poor fit]. Same read-out and setting: for `COCCn1c(N)c(N(Cc2ccccc2)C(=O)c2oc3ccccc3c2C)c(=O)[nH]c1=O` the value was 35.5 µM [rising, single point]. On the same count and under the same terms, for `CC(Cc1cccs1)NC(=S)Nc1ccccc1` (configuration not stated) the value was 5.8 µM [rising, partial curve, poor fit]; for `CC(C)Cn1c(SCC(=O)N(C)C2CCS(=O)(=O)C2)nc2cc(Cl)ccc2c1=O` (configuration not stated), 6.51 µM [falling, partial curve, poor fit]; for `COc1cccc(/C=C2\SC(=O)N(CCC(=O)NCCCn3ccnc3)C2=O)c1`, 14.1 µM [falling, partial curve, poor fit].

On to `CC(=O)c1ccc(NC(=O)CCCC(=O)c2ccccc2)cc1`, for which the AC50 under setting [1] is 0.355 µM [rising, full curve, poor fit].

Consider `Cc1nn(C2CCS(=O)(=O)C2)c(Cl)c1/C=C/C(=O)OCC(N)=O` (configuration not stated), for which, under setting [1], the AC50 was 2.82 µM [falling, partial curve, poor fit].

For the compound `CCn1c(COc2ccccc2OC)nnc1SCC(=O)NC1CCCC1`, the AC50 under setting [1] was 5.62 µM [rising, single point]. Still for that read-out and setting: for `Cc1cccc(N2CCC(N3CCN(C4CCCCC4)C(CCO)C3)CC2)c1C` (configuration not stated) the value was 25.1 µM [falling, single point]; for `O=C(COC(=O)c1ccc(Cl)nc1)Nc1cccc(S(=O)(=O)N2CCCCC2)c1`, 20.6 µM [rising, partial curve, poor fit]. Still for that read-out and setting: the same measure for `Cn1nc(-c2ccc(Cl)cc2)cc1NC(=O)CSCC(=O)O`: 35.5 µM [falling, single point]; for `COc1cccc(OCCn2cc(C(=O)c3ccco3)c3ccccc32)c1`: 0.461 µM [falling, full curve].

`COC(=O)C1CCN(C(=O)CSc2nc3ccc(OC)cc3[nH]2)CC1`: the half-maximal activity concentration (AC50) under setting [1] was 17.8 µM [falling, partial curve, poor fit].

Take `CCOC(=O)C1(Cc2ccccc2C(F)(F)F)CCN(C2CCN(C(C)=O)CC2)CC1`: the half-maximal activity concentration (AC50) under setting [1] is 35.5 µM [falling, single point].

With `Cc1cccc(-c2nc(-c3ccncc3)no2)c1`, the concentration at half-maximal activity (AC50) under setting [1] is 3.98 µM [rising, single point]. Take `O=C(Cn1cccc1C(=O)c1ccccc1)NCc1ccccn1`: under setting [1], the half-maximal activity concentration (AC50) was 6.31 µM [rising, single point]. Still for that read-out and setting: the same measure for `O=C1c2ccccc2C(=O)N1CCC#Cc1ccc2cc(CCCO)oc(=O)c2c1`: 6.51 µM [rising, single point]. On the same count and under the same terms, the same measure for `O=C(NCCN1CCCC1=O)Nc1ccccc1`: 0.092 µM [rising, full curve, poor fit].

On to `O=C(N/N=C/c1ccc(OCC(=O)N2CCCCC2)cc1)c1ccccc1`, for which the AC50 under setting [1] was 20 µM [falling, partial curve, poor fit]. For the compound `CNc1nc(N/N=C/c2ccc([N+](=O)[O-])cc2)nc(Nc2ccccc2)n1`, the half-maximal activity concentration (AC50) by setting is: under setting [1], 29.1 µM [falling, single point]; under setting [2], 23.1 µM [rising, partial curve, poor fit].

As to `CC(C)c1cc(C(=O)Nc2cccc(Cl)c2)no1`, under setting [1], the AC50 was 12.6 µM [falling, single point]. Turning to `CCOC(=O)c1[nH]c(C)c(C(=O)Nc2cc(OC)ccc2OC)c1C`, the AC50 is 6.51 µM [falling, partial curve, poor fit] under setting [1] and 23.1 µM [falling, single point] under setting [2]. Consider `CCc1ccc(Sc2cc(C(=O)NCCCN3CCCC(C)C3)c3ccccc3n2)cc1` (configuration not stated), for which, under setting [1], the half-maximal activity concentration (AC50) was 22.4 µM [falling, single point]. On to `N#Cc1ccc(C23CC4(C2)[C@H](CN(P(=O)(c2ccccc2)c2ccccc2)[C@@H]4c2ccccc2)C3c2ccc(Cl)nc2)cc1` (some centres not stated), for which the half-maximal activity concentration (AC50) under setting [1] is 3.98 µM [falling, partial curve] and the concentration at half-maximal activity (AC50) under setting [2] is 11.2 µM [rising, partial curve]. As for `CN(C)CCCNc1ccc(-c2cc(Nc3cccc(Cl)c3)ncn2)cn1`, the half-maximal activity concentration (AC50) under setting [1] is 14.1 µM [falling, single point].

For `CC(=O)Nc1ccc(S(=O)(=O)n2nc(-c3ccc(C)cc3)nc2N)cc1`, under setting [1], the AC50 was 35.5 µM [rising, partial curve, poor fit]. On the same count and under the same terms, the same measure for `N#CCCC12CCCCC1=Nc1ccccc12` (configuration not stated): 0.891 µM [rising, full curve, poor fit]; for `NC(=S)NNc1c(F)c(F)c(F)c(F)c1F`: 12.6 µM [rising, single point]. The same measure, in the same setting: for `C[C@H]1NC(=O)[C@@]2(C)[C@H](c3ccccc3)[C@H]3COc4ccccc4[C@@H]3N2C1=O` the value was 2.31 µM [falling, partial curve, poor fit]. Still for that read-out and setting: the same measure for `CCN1/C(=C/c2ccc3ccccc3[n+]2CCCS(=O)(=O)[O-])C=Cc2cc(C)ccc21`: 0.224 µM [rising, full curve].

On to `COc1ccc(S(=O)(=O)N2CCCCC2)cc1NC(=O)CSc1ncnc2ccccc12`, for which the AC50 under setting [1] is 13 µM [falling, single point].

For `COC(=O)c1cccc(C(=O)Nc2ccc(F)cc2)n1`, under setting [1], the AC50 is 35.5 µM [falling, single point]. The same measure, in the same setting: the same measure for `COc1cc(C(=O)OC2CC3CCC2(C)C3(C)C)ccc1OC(C)=O` (configuration not stated): 12.6 µM [rising, partial curve, poor fit].

On to `Cc1occc1C(=O)NNC(=S)Nc1ccccc1`, for which the AC50 under setting [1] was 2.06 µM [falling, full curve]. On the same count and under the same terms, for `Cc1ccc(-c2noc(CSc3nnc(Cc4ccccc4)n3-c3ccc(Cl)cc3)n2)cc1` the value was 1.84 µM [falling, partial curve, poor fit].
